Measurements from patent US9271974B2, “Use of oxycodone for treating visceral pain” (PURDUE PHARMA L.P., priority 2005, dated 2016).

Tested on: cutaneous pain
Assay: Experimental cutaneous pain (pressure, electrical, thermal stimuli on skin) in healthy volunteers
Type: in vivo, human
Settings: oral solution, morphine 30 mg, oxycodone 15 mg, FIG. 1
Source text: The experimental studies referred to below, are based on a comparison of different drugs at healthy volunteers by applying experimental pain, since clinical studies provide insufficient information, partly due to the great difference that exists between patients and partly due to the fact that most diseases produce many symptoms other than pain, which affects the assessment of pain-killing efficacy. Experimental pain can be administered under controlled conditions in healthy volunteers so that this bias can be avoided. However, several experimental stimuli are necessary to simulate the complex clinical situation. It is also necessary to use different opioids to obtain sufficient differentiated knowledge about deep pain on different pain mechanisms, and an assessment of the clinical action spectrum of opioids. For testing the efficacy of different opioids for treating visceral pain a standardized test battery of cutaneous, muscular and visceral stimuli was applied. Blood samples were taken for determination of the opioid concentration in plasma.
In recent years methods by which deep and visceral stimuli can be administered reproducibly have been developed. These methods allow activation of the pain system with different stimuli, with the possibility of activating various types of nerve pathways in the same experiment. […]

For `CN1CC[C@]23c4c5ccc(O)c4O[C@H]2[C@@H](O)C=C[C@H]3[C@H]1C5` [morphine], the “analgesic effect in the skin versus placebo” value was “significantly more analgesic than placebo”.
